# Counter-ions that a name gives are not always drawn. The list shows a part of the results. The calls rarely recur for the same compound in another form.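 Kinases, fused to nanoluciferase, were expressed in K562 cells; luminescence was measured every 4 h from 2 to 18 h as percent of control (DMSO = 100%, positive control = 0%). A time point is decreased if signal falls significantly (2 sigma). Hits were called by the authors by a rule that is not shown; the count of time points alone does not decide it.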
# By UniProt entry, the sequences of proteins in these tests, tags left out. Where a name states a change or a piece, a line headed by the entry shows the natural chain unless it says otherwise.
# UniProt Q9UBF8: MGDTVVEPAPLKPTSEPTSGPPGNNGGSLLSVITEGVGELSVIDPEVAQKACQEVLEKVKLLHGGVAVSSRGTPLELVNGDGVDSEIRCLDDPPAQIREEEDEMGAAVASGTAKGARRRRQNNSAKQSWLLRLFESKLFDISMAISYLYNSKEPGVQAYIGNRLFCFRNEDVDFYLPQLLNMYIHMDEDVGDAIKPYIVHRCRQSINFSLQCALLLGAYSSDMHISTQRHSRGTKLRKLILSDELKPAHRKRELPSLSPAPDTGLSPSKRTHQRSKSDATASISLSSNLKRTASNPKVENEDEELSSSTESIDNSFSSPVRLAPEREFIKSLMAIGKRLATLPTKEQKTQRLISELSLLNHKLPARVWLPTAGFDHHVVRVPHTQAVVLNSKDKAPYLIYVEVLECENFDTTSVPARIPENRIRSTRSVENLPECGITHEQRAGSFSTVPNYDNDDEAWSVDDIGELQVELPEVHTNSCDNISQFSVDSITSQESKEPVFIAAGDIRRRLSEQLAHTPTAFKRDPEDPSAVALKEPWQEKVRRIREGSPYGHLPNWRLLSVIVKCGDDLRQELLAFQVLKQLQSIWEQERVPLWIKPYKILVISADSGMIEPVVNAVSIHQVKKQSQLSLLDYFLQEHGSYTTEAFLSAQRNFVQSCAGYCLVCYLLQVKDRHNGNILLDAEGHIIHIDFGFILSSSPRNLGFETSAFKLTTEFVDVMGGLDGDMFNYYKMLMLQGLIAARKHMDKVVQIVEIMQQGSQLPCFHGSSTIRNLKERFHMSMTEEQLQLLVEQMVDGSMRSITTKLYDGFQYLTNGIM
# Biological target: PIK4CB (UniProt Q9UBF8)
# Test: number of time points (of 5) at which kinase-Nluc abundance scored as decreased, DMSO-normalised (count); higher = more persistent destabilization
# Details: K562; 2-18 h
row,Compound,number of time points
1,FC(F)(F)c1ccc(CNc2ccc(Cc3c[nH]c4ncccc34)cn2)cc1 (10 µM),0
2,c1ccc(-c2[nH]ncc2-c2ccnc3ccccc23)nc1 (10 µM),0
3,CC#CC(=O)N1CC[C@@H](n2c(=O)n(-c3ccc(Oc4ccccc4)cc3)c3c(N)ncnc32)C1 [Tirabrutinib (hydrochloride)] (10 µM),0
4,CC1=C(C(=O)O)N2C(=O)[C@@H](NC(=O)[C@H](N)C3=CCC=CC3)[C@H]2SC1 [Cephradine] (10 µM),0
5,Cn1cc(-c2ccc3nnc(Sc4ccc5ncccc5c4)n3n2)cn1 (10 µM),0
6,CC(=O)c1c(C)cc2cccc(O)c2c1O [Nepodin] (10 µM),0
7,NCCNS(=O)(=O)c1cccc2c(Cl)cccc12 [A-3 (hydrochloride)] (10 µM),0
8,N#Cc1c(C2CCNCC2)cc(-c2c(O)cccc2OCC2CC2)nc1N [ACHP (Hydrochloride)] (10 µM),0
9,C[C@@H]1COCCN1c1cc(C2([S@@](C)(=N)=O)CC2)nc(-c2ccnc3[nH]ccc23)n1 [(S)-Ceralasertib] (10 µM),0
10,NC(=O)c1nc(Nc2ccccc2)sc1NC(=O)C1CCCCC1 (10 µM),0
11,Cc1cc(Nc2ncnc3ccc(NC4=NC(C)(C)CO4)cc23)ccc1Oc1ccn2ncnc2c1 [Tucatinib (hemiethanolate)] (2.5 µM),0
12,Cc1ccc(C(=O)Nc2ccc(Oc3cc4cnn(C)c4cc3-c3cn[nH]c3)c(F)c2)c(=O)n1-c1ccc(F)cc1 [Merestinib dihydrochloride] (2.5 µM),0

# Quoted at random: 2 entries already listed.
row,Compound,number of time points
2,c1ccc(-c2[nH]ncc2-c2ccnc3ccccc23)nc1 (10 µM),0
6,CC(=O)c1c(C)cc2cccc(O)c2c1O [Nepodin] (10 µM),0
